# PMC12886786
# The chains behind the UniProt entries cited, without tags or fusion partners. Where a name states a change or a piece, a line headed by the entry shows the natural chain unless it says otherwise. A line that says so, or that is headed by a name, gives the form on record, which may keep a tag or linker.
# mCherry-PIPKIγ-i5 (O60331, form named): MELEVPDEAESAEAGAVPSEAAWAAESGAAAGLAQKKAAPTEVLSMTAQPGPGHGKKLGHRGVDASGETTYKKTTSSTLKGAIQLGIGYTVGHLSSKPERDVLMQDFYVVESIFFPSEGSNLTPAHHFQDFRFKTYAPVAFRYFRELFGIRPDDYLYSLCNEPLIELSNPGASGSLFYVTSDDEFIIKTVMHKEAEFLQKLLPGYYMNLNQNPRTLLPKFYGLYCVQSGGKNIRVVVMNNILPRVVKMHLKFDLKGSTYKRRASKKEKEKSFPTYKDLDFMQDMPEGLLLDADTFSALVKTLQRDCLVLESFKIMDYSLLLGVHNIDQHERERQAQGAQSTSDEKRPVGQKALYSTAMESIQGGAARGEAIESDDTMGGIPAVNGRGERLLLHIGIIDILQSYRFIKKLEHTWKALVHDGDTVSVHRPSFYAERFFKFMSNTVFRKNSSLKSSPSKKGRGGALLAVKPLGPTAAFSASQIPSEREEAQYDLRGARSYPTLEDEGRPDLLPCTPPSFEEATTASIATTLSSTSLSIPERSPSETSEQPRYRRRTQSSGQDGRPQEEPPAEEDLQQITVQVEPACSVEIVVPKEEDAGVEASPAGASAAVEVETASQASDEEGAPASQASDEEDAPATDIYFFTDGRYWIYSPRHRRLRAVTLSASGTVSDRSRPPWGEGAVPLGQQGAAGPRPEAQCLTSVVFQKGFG
# UniProt O14578: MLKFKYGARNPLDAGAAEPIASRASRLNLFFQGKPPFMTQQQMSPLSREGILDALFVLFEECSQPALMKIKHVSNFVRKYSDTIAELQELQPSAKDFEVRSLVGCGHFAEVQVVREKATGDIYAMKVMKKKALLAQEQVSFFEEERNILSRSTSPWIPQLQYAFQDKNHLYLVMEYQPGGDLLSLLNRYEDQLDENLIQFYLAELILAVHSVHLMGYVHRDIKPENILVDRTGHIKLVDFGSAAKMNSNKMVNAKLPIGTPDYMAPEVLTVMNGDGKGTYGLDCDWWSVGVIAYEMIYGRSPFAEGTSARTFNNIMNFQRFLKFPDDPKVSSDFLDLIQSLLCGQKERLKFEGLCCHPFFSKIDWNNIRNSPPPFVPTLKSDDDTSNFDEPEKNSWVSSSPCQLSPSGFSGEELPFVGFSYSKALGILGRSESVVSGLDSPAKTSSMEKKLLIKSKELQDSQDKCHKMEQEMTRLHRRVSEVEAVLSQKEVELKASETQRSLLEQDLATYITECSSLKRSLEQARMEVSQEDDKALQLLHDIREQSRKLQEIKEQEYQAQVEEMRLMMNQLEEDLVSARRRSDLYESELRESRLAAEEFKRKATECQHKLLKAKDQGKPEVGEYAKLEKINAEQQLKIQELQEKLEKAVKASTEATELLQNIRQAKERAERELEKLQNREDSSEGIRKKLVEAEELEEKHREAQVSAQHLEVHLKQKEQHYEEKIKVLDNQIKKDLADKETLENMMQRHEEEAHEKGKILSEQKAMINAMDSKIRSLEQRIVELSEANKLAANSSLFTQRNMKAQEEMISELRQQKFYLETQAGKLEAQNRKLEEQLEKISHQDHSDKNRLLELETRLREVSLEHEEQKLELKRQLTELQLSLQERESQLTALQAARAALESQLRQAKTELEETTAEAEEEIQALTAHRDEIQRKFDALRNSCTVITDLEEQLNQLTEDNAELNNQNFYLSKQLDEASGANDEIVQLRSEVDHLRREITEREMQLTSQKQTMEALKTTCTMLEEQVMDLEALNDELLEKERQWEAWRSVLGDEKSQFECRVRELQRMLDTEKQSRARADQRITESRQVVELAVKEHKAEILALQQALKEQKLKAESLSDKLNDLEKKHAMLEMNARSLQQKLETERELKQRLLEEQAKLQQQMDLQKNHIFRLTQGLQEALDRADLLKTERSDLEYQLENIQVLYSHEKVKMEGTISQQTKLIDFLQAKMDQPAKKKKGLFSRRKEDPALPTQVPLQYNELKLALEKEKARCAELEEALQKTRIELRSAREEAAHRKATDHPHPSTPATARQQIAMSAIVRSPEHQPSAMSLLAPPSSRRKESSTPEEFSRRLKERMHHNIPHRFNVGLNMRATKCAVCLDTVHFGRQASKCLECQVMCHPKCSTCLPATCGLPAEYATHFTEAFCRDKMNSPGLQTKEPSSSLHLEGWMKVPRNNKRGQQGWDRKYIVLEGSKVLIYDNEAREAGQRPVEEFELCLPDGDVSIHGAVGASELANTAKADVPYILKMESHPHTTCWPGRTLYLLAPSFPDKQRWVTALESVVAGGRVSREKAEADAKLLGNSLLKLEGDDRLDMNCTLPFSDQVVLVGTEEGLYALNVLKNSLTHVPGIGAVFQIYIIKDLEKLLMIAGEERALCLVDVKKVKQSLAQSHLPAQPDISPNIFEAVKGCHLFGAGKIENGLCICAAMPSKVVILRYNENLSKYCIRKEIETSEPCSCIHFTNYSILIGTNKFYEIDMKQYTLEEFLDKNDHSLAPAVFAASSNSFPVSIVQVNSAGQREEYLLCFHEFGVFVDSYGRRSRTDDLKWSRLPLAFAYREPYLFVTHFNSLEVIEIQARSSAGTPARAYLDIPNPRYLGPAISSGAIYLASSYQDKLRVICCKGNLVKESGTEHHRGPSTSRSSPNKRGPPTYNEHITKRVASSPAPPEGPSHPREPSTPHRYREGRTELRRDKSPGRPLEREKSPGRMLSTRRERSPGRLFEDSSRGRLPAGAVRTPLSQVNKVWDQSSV
# Results are given in words; binding and its absence hold for the method and conditions named. Binding seen in cells or lysates may run through a third protein. Some entries that bind do so weakly or less than the wild type. For some assays here: Sequences can lack the tags named with a protein.
# B1: anillin (protein, UniProt Q9NQW6 1-1124)
# chain: MDPFTEKLLERTRARRENLQRKMAERPTAAPRSMTHAKRARQPLSEASNQQPLSGGEEKSCTKPSPSKKRCSDNTEVEVSNLENKQPVESTSAKSCSPSPVSPQVQPQAADTISDSVAVPASLLGMRRGLNSRLEATAASSVKTRMQKLAEQRRRWDNDDMTDDIPESSLFSPMPSEEKAASPPRPLLSNASATPVGRRGRLANLAATICSWEDDVNHSFAKQNSVQEQPGTACLSKFSSASGASARINSSSVKQEATFCSQRDGDASLNKALSSSADDASLVNASISSSVKATSPVKSTTSITDAKSCEGQNPELLPKTPISPLKTGVSKPIVKSTLSQTVPSKGELSREICLQSQSKDKSTTPGGTGIKPFLERFGERCQEHSKESPARSTPHRTPIITPNTKAIQERLFKQDTSSSTTHLAQQLKQERQKELACLRGRFDKGNIWSAEKGGNSKSKQLETKQETHCQSTPLKKHQGVSKTQSLPVTEKVTENQIPAKNSSTEPKGFTECEMTKSSPLKITLFLEEDKSLKVTSDPKVEQKIEVIREIEMSVDDDDINSSKVINDLFSDVLEEGELDMEKSQEEMDQALAESSEEQEDALNISSMSLLAPLAQTVGVVSPESLVSTPRLELKDTSRSDESPKPGKFQRTRVPRAESGDSLGSEDRDLLYSIDAYRSQRFKETERPSIKQVIVRKEDVTSKLDEKNNAFPCQVNIKQKMQELNNEINMQQTVIYQASQALNCCVDEEHGKGSLEEAEAERLLLIATGKRTLLIDELNKLKNEGPQRKNKASPQSEFMPSKGSVTLSEIRLPLKADFVCSTVQKPDAANYYYLIILKAGAENMVATPLASTSNSLNGDALTFTTTFTLQDVSNDFEINIEVYSLVQKKDPSGLDKKKKTSKSKAITPKRLLTSITTKSNIHSSVMASPGGLSAVRTSNFALVGSYTLSLSSVGNTKFVLDKVPFLSSLEGHIYLKIKCQVNSSVEERGFLTIFEDVSGFGAWHRRWCVLSGNCISYWTYPDDEKRKNPIGRINLANCTSRQIEPANREFCARRNTFELITVRPQREDDRETLVSQCRDTLCVTKNWLSADTKEERDLWMQKLNQVLVDIRLWQPDACYKPIGKP
# B2: myc-tagged SEPT7 (protein, UniProt Q16181 1-437)
# chain: MSVSARSAAAEERSVNSSTMVAQQKNLEGYVGFANLPNQVYRKSVKRGFEFTLMVVGESGLGKSTLINSLFLTDLYSPEYPGPSHRIKKTVQVEQSKVLIKEGGVQLLLTIVDTPGFGDAVDNSNCWQPVIDYIDSKFEDYLNAESRVNRRQMPDNRVQCCLYFIAPSGHGLKPLDIEFMKRLHEKVNIIPLIAKADTLTPEECQQFKKQIMKEIQEHKIKIYEFPETDDEEENKLVKKIKDRLPLAVVGSNTIIEVNGKRVRGRQYPWGVAEVENGEHCDFTILRNMLIRTHMQDLKDVTNNVHYENYRSRKLAAVTYNGVDNNKNKGQLTKSPLAQMEEERREHVAKMKKMEMEMEQVFEMKVKEKVQKLKDSEAELQRRHEQMKKNLEAQHKELEEKRRQFEDEKANWEAQQRILEQQNSSRTLEKNKKKGKIF
# B3: myc-tagged SEPT9 (protein, UniProt Q9UHD8 1-586)
# chain: MKKSYSGGTRTSSGRLRRLGDSSGPALKRSFEVEEVETPNSTPPRRVQTPLLRATVASSTQKFQDLGVKNSEPSARHVDSLSQRSPKASLRRVELSGPKAAEPVSRRTELSIDISSKQVENAGAIGPSRFGLKRAEVLGHKTPEPAPRRTEITIVKPQESAHRRMEPPASKVPEVPTAPATDAAPKRVEIQMPKPAEAPTAPSPAQTLENSEPAPVSQLQSRLEPKPQPPVAEATPRSQEATEAAPSCVGDMADTPRDAGLKQAPASRNEKAPVDFGYVGIDSILEQMRRKAMKQGFEFNIMVVGQSGLGKSTLINTLFKSKISRKSVQPTSEERIPKTIEIKSITHDIEEKGVRMKLTVIDTPGFGDHINNENCWQPIMKFINDQYEKYLQEEVNINRKKRIPDTRVHCCLYFIPATGHSLRPLDIEFMKRLSKVVNIVPVIAKADTLTLEERVHFKQRITADLLSNGIDVYPQKEFDEDSEDRLVNEKFREMIPFAVVGSDHEYQVNGKRILGRKTKWGTIEVENTTHCEFAYLRDLLIRTHMQNIKDITSSIHFEAYRVKRLNEGSSAMANGMEEKEPEAPEM
# B4: mitotic kinesin-like protein 1 (MKLP1) (protein, UniProt Q02241 1-960)
# chain: MKSARAKTPRKPTVKKGSQTNLKDPVGVYCRVRPLGFPDQECCIEVINNTTVQLHTPEGYRLNRNGDYKETQYSFKQVFGTHTTQKELFDVVANPLVNDLIHGKNGLLFTYGVTGSGKTHTMTGSPGEGGLLPRCLDMIFNSIGSFQAKRYVFKSNDRNSMDIQCEVDALLERQKREAMPNPKTSSSKRQVDPEFADMITVQEFCKAEEVDEDSVYGVFVSYIEIYNNYIYDLLEEVPFDPIKPKPPQSKLLREDKNHNMYVAGCTEVEVKSTEEAFEVFWRGQKKRRIANTHLNRESSRSHSVFNIKLVQAPLDADGDNVLQEKEQITISQLSLVDLAGSERTNRTRAEGNRLREAGNINQSLMTLRTCMDVLRENQMYGTNKMVPYRDSKLTHLFKNYFDGEGKVRMIVCVNPKAEDYEENLQVMRFAEVTQEVEVARPVDKAICGLTPGRRYRNQPRGPVGNEPLVTDVVLQSFPPLPSCEILDINDEQTLPRLIEALEKRHNLRQMMIDEFNKQSNAFKALLQEFDNAVLSKENHMQGKLNEKEKMISGQKLEIERLEKKNKTLEYKIEILEKTTTIYEEDKRNLQQELETQNQKLQRQFSDKRRLEARLQGMVTETTMKWEKECERRVAAKQLEMQNKLWVKDEKLKQLKAIVTEPKTEKPERPSRERDREKVTQRSVSPSPVPLSSNYIAQISNGQQLMSQPQLHRRSNSCSSISVASCISEWEQKIPTYNTPLKVTSIARRRQQEPGQSKTCIVSDRRRGMYWTEGREVVPTFRNEIEIEEDHCGRLLFQPDQNAPPIRLRHRRSRSAGDRWVDHKPASNMQTETVMQPHVPHAITVSVANEKALAKCEKYMLTHQELASDGEIETKLIKGDIYKTRGGGQSVQFTDIETLKQESPNGSRKRRSSTVAPAQPDGAESEWTDVETRCSVAVEMRAGSQLGPGYQHHAQPKRKKP
# Key:
# [1] = target: T1, endogenous SEPT2 (HeLa) (human (endogenous in HeLa)) (UniProt Q15019); assay: co-IP; endogenous SEPT2 immunoprecipitated (rabbit anti-SEPT2 on protein A/G magnetic beads, 3-4 h at 4 °C) from lysates of HeLa cells in cytokinesis or arrested in S-phase by thymidine; Western blot
# T1 sequence: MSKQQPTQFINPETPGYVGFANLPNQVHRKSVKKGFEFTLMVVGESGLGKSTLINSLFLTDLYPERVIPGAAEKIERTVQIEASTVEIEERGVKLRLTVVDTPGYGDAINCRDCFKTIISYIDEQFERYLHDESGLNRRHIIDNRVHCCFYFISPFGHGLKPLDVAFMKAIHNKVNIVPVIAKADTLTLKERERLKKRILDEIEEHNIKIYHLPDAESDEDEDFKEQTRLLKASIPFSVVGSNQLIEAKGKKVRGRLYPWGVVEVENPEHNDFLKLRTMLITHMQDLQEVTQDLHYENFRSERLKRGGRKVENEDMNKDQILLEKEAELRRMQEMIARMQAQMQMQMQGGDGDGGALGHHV
# [2] = target: mCherry-PIPKIγ-i5 (human) (UniProt O60331); assay: co-IP; HEK-293T co-transfected with mCherry-PIPKIγ and myc-tagged SEPT7 or SEPT9; RFP-Trap magnetic particles, 2.5 h at 4 °C; lysis buffer 20 mM HEPES, 100 mM KCl, 2 mM MgCl2, 1% Triton X-100, pH 7.4; immunoblot
Molecule,binding [1],binding [2]
citron kinase (from UniProt O14578 1-2027),binds,
B1,binds,
B2,,binds
B3,,binds
B4,binds,
